Reference: PubChem BioAssay AID590 (National Center for Advancing Translational Sciences (NCATS), 2007)
The campaign covered roughly 59,000 compounds. About 6,500 (11%) were called active. The shares of active, inactive and inconclusive entries below differ from those in the screen. Cut-off read from the data, not from the text of the source: active = max dye-equivalent concentration above about 10 nM; inconclusive = mostly about 1.1 nM to 9.6 nM; inactive = weaker than that.

Assay: qHTS Assay for Spectroscopic Profiling in A350 Spectral Region
Details: Compound autofluorescence, 340/450 nm, Alexa 350 dye-equivalents; stronger effect = higher value

Structure (SMILES)	max dye-equivalent concentration
COP(=O)(/C=C/c1ccccc1)C(O)c1ccc(F)cc1 (stereo not given)	inconclusive: 1.1 nM
Cc1nc2cnc(N3CCNCC3)nc2n(Cc2cccs2)c1=O	inconclusive: 8 nM
O=S1(=O)CCN2C(c3ccc4c(c3)CCCC4)=CSC2=N1	inconclusive: 1.3 nM
COc1ccc(C(=O)n2ccc(C)n2)cc1Br	inconclusive: 2.3 nM
O=C(Nc1cnn(Cc2ccc(F)cc2)c1)c1cc2nc(-c3ccco3)cc(C(F)(F)F)n2n1	inconclusive: 5.3 nM
O=C(CSc1nnc(-c2c[nH]c3ccccc23)o1)N1CCCCC1	inconclusive: 1.3 nM
Cc1sc2nc(C(C)Sc3nnc(C)n3-c3ccccc3)[nH]c(=O)c2c1C (stereo not given)	inconclusive: 8.2 nM
Cc1cc(N2CCN(c3ccccn3)CC2)n2c(nc3ccccc32)c1C#N	active: 73 nM
CCCn1c(CCC(=O)O)ccc1-c1ccc(F)cc1	active: 170 nM
COc1ccc2oc(=O)c(C(=O)O)cc2c1	inconclusive: 1.3 nM
CC1=C(C)C(=O)C(CCCCC#CCCCC#CCO)=C(C)C1=O	inconclusive: 3.3 nM
CC1(C)Cc2c(sc3c2C(=O)N(c2ccccc2)C2=NCCCN23)CO1	inconclusive: 5.7 nM
O=c1c(-c2ccc(F)cc2)nc2cnc(Nc3ccccc3)nc2n1C1CC1	inconclusive: 8.9 nM
c1ccc(-n2nnc3cnccc32)cc1	inconclusive: 3.1 nM
CN(C)S(=O)(=O)c1cccc(C(=O)N2CCN(Cc3ccccc3)CC2)c1	inconclusive: 1.1 nM
CCCCNC(=O)c1c(C)cc(=O)oc1C	inconclusive: 2.9 nM
Cc1ccc(C(=O)c2coc3ccc(OCC(=O)O)cc23)cc1	inconclusive: 4.2 nM
COc1ccccc1NC(=O)CSc1nnnn1-c1ccc2c(c1)OCO2	inactive
CN1CCN(S(=O)(=O)c2ccc(Br)s2)CC1	inconclusive: 1.2 nM
O=C(c1cnn2c(C(F)F)cc(C3CC3)nc12)N1CCc2ccccc2C1	inconclusive: 2.4 nM

Structure (SMILES)	max dye-equivalent concentration
COc1ccc(NC(=O)N2CCC3(CC2)CCN(C(=O)c2ccco2)CC3)cc1	inactive
COC(=O)c1cc(C)sc1NC(=O)c1cccnc1	inconclusive: 6.3 nM
COCC(=O)N(C)C1(c2nnnn2CCOC(=O)Nc2cccc3ccccc23)CCCC1	inactive
CN(C)C(CNC(=O)c1cccnc1Sc1ccccc1)c1ccco1 (stereo not given)	inconclusive: 5.6 nM
CCOC(=O)c1c(NC(=O)COC(=O)c2c(C)noc2C)sc2c1CCC2	inactive
CC(=O)N(Cc1cccnc1)Cc1cc2ccc(C)cc2[nH]c1=O	inconclusive: 1.3 nM
CCCCSc1nnc(-c2ccc(NC(=O)CC)cc2)n1C	inactive
CCC(=O)Oc1ccc(-c2nc(-c3cccnc3)no2)cc1	inconclusive: 4 nM
O=C(NC1CC1)c1ccc(-c2nc3ccccc3s2)s1	active: 22 nM
Cc1nn(-c2ccccc2)c(Cl)c1C(=O)N1CCN(c2ncnc3c2cnn3-c2ccccc2)CC1	inconclusive: 2.3 nM
CC(C)n1nc(C(=O)NCCc2ccc(S(N)(=O)=O)cc2)c2ccccc2c1=O	inactive
Brc1ccc(-c2nnc3sc(CN4CCN(c5ccccc5)CC4)cn23)cc1	inconclusive: 5.2 nM
O=C(CN1C(=O)c2ccccc2C1=O)OCC(=O)N1CCc2ccccc2C1	inconclusive: 2.8 nM
Cn1c(=O)n(C)c2cc(S(=O)(=O)N3CCOCC3)ccc21	inconclusive: 2.2 nM
O=C(Nc1cccc(NC(=O)c2ccc(-c3cccc(Br)c3)o2)c1)c1ccco1	active: 19 nM
CCC(Sc1nc2ccccc2c(=O)n1CC1CCCO1)C(=O)NCc1cccnc1 (stereo not given)	inconclusive: 1.8 nM
COc1ccc2c(-c3cccnc3)cc(=O)[nH]c2c1	inconclusive: 2.7 nM
CCOc1ccccc1C(=O)Nc1ccccc1C(N)=O	inconclusive: 2.3 nM
Cc1n[nH]c(C)c1-c1nc2ccccc2[nH]1	inactive
CC(C)[C@@H]1[C@H]2CC[C@H](C2)[C@H]1N	inactive

Structure (SMILES)	max dye-equivalent concentration
Cc1nc2ccccc2cc1O	active: 2500 nM
CC(C)C(C)(C#N)NC(=O)CSc1nc2scc(-c3ccco3)c2c(=O)n1-c1ccccc1 (stereo not given)	inconclusive: 2.2 nM
O=c1c(-c2ccccc2)[n+]([O-])c2ccccc2n1O	inconclusive: 1.1 nM
CN1CCN(CC(=O)N2c3ccccc3Sc3cc4ccccc4cc32)CC1	inactive
Cc1cc(NC(=O)c2ccc(S(=O)(=O)N3CCCC3)cc2)nc2c1c(=O)oc1ccccc12	inconclusive: 1.8 nM
COc1ccc(NC(=O)COC(=O)c2ccc(Br)o2)cc1OC	inconclusive: 1.1 nM
Cc1cc(C)c(C#N)c(SCc2ccccc2C(=O)O)n1	active: 13 nM
Cc1ccc2c(C)nc(Nc3ncc4c(n3)CCCC4=O)nc2c1	inconclusive: 2.5 nM
CCOCCCNC(=O)C(Cc1ccccc1)NC(=O)c1ccco1 (stereo not given)	inconclusive: 1.1 nM
CC1(C)CC(=O)C(C=Nc2ccccc2C(=O)O)=C(O)C1	inconclusive: 5.6 nM
O=C(Nc1ccc(Cl)c(Cl)c1)OCc1cccnc1	inactive
Cc1nc(SCC(=O)NCc2ccc3c(c2)OCO3)c(C#N)c2c1CCCC2	inconclusive: 1.6 nM
Cc1ccc(-c2nc3ccccc3c(=O)n2CCCn2ccnc2)cc1	inconclusive: 1.1 nM
COc1cccc(CSc2nnc(-c3ccco3)n2C)c1	inactive
CCOC(=O)Cc1cc(=O)n2[nH]c(C)c(-c3ccccc3)c2n1	inconclusive: 1.1 nM
Cc1cc2c(cc(C(=O)O)n2C)s1	inconclusive: 3.2 nM
Cc1cc(C)n2nc(NCc3ccccc3)nc2n1	inconclusive: 3.8 nM
COc1cc(C(C#N)N2CCOCC2)ccc1O (stereo not given)	inconclusive: 1.3 nM
O=C(N1CCOCC1)N1CCOCC1	inactive
CCOC(=O)Nc1ccc(C)cc1Br	inconclusive: 1.5 nM

Among those listed so far, 2 have a Cl atom.
Structure (SMILES)	max dye-equivalent concentration
Cc1nn(-c2ccccc2)c(Cl)c1C(=O)N1CCN(c2ncnc3c2cnn3-c2ccccc2)CC1	inconclusive: 2.3 nM
O=C(Nc1ccc(Cl)c(Cl)c1)OCc1cccnc1	inactive
